Measurements from the supplement of paper PMC6411743.
± gives the standard deviation of the averaged measurements. The list shows a part of the results, in another mix than the full data. Most values lie at the level of the controls, where differences are scatter.

By UniProt entry, the sequences of proteins in these tests, tags left out. Where a name states a change or a piece, a line headed by the entry shows the natural chain unless it says otherwise.
UniProt Q9NXE8: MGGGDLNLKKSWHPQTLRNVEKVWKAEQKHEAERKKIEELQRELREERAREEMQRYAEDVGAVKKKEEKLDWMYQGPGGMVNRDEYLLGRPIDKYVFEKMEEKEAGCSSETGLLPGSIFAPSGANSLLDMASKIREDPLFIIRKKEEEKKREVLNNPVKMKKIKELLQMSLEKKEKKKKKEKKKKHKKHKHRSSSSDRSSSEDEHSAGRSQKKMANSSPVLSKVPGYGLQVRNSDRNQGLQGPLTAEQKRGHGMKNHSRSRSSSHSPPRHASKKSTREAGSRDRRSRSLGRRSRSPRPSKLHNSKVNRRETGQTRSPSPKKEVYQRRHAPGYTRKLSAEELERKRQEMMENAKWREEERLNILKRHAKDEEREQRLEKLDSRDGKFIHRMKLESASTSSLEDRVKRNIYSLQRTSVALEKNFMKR
UniProt Q9NX08, whole entry: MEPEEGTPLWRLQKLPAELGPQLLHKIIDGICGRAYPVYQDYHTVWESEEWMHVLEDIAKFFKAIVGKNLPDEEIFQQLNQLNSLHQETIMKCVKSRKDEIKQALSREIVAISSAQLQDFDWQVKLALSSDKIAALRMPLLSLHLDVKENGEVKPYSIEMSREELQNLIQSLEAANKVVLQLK
UniProt Q9NWZ8: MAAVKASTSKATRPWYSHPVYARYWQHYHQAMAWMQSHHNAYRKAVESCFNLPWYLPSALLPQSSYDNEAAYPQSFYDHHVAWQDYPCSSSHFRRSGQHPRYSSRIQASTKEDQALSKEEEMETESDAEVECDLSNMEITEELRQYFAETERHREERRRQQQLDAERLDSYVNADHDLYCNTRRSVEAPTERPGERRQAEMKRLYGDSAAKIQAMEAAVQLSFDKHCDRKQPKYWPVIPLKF
UniProt Q9NQE9: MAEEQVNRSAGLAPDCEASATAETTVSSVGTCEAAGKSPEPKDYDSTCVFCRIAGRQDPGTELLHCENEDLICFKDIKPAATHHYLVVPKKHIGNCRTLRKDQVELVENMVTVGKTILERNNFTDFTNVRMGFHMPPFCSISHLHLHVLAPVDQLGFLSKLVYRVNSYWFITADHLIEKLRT
UniProt Q9NX07: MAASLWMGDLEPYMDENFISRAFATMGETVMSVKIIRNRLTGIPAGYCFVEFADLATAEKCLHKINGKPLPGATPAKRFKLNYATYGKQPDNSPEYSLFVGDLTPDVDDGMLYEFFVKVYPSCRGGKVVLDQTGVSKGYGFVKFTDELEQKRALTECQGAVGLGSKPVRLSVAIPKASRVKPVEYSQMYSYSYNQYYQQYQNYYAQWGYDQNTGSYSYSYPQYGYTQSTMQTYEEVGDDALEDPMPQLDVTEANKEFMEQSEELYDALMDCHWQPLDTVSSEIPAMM
UniProt Q9NTZ6: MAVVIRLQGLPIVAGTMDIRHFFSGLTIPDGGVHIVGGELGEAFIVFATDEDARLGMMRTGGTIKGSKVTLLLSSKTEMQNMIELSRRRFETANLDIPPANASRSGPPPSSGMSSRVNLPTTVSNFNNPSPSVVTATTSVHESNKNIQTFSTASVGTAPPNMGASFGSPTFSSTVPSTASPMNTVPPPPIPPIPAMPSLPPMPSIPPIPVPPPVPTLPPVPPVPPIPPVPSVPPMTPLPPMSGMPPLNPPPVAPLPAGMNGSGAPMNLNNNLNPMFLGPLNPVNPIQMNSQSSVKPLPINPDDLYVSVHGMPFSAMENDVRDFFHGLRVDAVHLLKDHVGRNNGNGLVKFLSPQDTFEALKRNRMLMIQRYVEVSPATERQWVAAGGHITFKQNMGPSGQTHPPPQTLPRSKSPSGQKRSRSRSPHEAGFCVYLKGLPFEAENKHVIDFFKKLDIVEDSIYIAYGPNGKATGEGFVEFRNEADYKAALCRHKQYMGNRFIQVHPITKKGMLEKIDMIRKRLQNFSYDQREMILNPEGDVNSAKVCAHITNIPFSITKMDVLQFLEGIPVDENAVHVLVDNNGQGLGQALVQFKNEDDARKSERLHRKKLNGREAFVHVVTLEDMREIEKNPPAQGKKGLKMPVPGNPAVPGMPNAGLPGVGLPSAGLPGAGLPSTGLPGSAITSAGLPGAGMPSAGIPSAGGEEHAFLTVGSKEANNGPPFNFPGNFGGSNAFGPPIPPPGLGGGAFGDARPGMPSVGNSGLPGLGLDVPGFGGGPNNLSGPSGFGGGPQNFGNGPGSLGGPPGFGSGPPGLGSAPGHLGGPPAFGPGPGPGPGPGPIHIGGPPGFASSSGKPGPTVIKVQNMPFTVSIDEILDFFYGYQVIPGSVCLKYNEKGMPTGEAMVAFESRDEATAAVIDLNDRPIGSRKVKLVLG
UniProt Q9UBP6: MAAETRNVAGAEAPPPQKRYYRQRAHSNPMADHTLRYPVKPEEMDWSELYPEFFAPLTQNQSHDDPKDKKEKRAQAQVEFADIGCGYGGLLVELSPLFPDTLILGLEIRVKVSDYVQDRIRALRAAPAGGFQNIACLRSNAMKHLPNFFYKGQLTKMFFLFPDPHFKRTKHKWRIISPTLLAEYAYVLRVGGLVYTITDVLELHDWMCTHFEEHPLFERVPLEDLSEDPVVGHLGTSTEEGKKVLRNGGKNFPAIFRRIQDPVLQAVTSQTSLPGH
UniProt Q9NXV6: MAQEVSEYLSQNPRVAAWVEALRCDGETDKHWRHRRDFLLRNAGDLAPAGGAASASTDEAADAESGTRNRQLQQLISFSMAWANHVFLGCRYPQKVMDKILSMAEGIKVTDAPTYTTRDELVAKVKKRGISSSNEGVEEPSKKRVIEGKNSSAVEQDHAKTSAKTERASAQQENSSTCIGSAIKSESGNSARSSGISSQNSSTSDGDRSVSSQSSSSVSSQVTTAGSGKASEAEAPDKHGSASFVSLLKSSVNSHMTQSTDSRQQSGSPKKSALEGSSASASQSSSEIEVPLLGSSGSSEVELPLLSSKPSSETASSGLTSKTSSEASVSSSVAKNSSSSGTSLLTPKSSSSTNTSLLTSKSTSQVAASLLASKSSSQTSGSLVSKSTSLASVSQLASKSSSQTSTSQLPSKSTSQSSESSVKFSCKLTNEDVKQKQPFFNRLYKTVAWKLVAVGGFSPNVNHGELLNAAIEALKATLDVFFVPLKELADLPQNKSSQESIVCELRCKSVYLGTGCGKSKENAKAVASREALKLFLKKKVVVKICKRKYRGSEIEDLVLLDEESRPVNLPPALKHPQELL
UniProt Q9NVH2, whole entry: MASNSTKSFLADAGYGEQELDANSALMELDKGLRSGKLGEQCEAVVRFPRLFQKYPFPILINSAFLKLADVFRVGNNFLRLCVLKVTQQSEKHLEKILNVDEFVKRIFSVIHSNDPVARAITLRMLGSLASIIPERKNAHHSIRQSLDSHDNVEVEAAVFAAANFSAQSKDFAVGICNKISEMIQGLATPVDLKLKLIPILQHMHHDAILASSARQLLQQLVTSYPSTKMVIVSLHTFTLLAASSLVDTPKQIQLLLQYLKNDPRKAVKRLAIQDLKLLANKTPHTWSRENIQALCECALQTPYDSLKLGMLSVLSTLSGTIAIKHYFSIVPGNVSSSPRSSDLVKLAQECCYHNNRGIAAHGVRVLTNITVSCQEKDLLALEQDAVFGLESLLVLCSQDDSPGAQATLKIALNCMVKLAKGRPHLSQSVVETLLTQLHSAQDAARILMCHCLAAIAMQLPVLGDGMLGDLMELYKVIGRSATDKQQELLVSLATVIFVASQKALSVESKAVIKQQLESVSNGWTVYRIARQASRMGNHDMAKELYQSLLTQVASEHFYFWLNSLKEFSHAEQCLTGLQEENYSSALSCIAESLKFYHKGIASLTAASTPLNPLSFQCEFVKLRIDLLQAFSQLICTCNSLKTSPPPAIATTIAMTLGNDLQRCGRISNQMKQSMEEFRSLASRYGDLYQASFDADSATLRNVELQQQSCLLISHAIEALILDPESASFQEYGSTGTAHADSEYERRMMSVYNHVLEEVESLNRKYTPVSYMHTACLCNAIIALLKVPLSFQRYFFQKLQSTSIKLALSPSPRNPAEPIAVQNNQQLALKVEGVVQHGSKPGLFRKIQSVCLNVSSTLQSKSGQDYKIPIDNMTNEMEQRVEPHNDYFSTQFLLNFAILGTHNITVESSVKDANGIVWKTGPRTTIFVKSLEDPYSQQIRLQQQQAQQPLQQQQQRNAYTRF
UniProt Q9NVR5: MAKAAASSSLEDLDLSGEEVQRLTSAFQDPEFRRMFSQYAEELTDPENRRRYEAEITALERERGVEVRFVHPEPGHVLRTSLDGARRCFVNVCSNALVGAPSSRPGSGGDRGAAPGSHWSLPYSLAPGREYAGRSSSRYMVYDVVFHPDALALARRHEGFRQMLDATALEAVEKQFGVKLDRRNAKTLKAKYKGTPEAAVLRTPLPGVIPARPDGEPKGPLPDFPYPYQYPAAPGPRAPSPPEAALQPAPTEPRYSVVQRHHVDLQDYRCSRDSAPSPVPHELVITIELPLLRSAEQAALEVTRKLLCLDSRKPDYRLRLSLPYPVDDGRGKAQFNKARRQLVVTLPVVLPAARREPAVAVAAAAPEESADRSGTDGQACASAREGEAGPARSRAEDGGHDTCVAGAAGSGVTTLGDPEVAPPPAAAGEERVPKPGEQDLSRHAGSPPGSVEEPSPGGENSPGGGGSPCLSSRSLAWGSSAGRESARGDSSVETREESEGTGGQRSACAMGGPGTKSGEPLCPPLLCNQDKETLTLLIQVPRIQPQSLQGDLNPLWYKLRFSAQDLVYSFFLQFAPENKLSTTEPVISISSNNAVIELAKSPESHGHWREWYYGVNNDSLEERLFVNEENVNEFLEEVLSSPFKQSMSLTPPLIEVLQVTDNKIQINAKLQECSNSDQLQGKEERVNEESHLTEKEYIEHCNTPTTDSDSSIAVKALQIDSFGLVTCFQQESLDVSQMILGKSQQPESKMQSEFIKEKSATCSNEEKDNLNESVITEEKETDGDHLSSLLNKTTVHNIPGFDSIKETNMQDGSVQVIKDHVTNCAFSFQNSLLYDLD
UniProt Q9P0J7: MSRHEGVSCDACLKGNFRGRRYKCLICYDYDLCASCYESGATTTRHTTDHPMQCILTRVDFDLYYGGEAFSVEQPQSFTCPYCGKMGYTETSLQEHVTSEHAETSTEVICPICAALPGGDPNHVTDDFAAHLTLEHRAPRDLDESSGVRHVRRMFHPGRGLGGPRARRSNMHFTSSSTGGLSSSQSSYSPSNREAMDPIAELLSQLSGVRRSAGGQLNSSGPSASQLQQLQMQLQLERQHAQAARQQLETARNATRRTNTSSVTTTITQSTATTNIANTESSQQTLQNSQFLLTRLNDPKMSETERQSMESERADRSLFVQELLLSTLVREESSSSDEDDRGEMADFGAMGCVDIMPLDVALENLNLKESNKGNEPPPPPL
UniProt Q9NQT4, whole entry: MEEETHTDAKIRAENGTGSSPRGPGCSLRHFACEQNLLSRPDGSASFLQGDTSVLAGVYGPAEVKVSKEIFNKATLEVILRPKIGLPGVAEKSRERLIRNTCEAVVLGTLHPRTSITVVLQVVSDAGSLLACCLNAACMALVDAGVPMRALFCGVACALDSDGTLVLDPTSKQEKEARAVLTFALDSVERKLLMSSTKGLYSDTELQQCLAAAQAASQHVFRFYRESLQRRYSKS
UniProt Q9NXR7, whole entry: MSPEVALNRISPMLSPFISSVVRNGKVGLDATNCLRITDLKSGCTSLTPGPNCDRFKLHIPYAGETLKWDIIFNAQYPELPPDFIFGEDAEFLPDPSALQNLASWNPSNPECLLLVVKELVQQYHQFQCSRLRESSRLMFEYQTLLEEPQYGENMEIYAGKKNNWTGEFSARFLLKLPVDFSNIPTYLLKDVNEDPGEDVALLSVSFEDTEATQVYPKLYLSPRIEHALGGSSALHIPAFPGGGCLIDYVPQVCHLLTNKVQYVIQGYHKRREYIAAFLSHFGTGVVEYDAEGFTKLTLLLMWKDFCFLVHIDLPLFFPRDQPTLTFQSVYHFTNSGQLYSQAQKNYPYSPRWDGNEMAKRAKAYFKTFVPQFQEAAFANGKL
UniProt Q9NQ34: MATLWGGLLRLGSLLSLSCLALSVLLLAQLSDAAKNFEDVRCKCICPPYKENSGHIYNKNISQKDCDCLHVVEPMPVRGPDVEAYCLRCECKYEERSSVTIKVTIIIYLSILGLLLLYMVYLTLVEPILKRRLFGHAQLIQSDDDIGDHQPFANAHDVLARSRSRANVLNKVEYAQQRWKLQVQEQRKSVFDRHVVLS
UniProt Q9NTM9: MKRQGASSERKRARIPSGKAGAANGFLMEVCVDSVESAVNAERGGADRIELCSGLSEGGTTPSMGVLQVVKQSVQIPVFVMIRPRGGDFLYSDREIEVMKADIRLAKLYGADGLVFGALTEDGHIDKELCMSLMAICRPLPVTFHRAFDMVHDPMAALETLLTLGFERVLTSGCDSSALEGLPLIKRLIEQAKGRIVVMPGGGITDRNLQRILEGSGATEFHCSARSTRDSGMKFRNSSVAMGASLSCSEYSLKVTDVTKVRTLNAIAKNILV
UniProt Q9NZJ9: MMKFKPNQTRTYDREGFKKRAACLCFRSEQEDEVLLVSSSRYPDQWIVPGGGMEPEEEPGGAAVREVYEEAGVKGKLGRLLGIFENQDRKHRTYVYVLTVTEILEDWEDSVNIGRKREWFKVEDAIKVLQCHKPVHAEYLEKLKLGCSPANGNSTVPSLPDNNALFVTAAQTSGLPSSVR

Compound: Nc1ncnc2c1ncn2[C@@H]1O[C@H](COP(=O)(O)OP(=O)(O)NP(=O)(O)O)[C@@H](O)[C@H]1O [adenylyl imidodiphosphate]
Experiment: NP40-soluble protein abundance relative to vehicle (solubility fold change) (ratio); higher = more soluble protein in presence of AMP-PNP
Method in brief: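 In three independent experiments, Jurkat crude lysate made by Dounce homogenisation was treated for 10 min at room temperature and then 3 min at 37 °C with eight concentrations ranging from 0.1 to 10 mM. It was then solubilised with 0.8% NP40 plus benzonase for 60 min at 4 °C and ultracentrifuged. The supernatant was TMT-labelled for LC-MS/MS, and each value is the fold change against the detergent-processed vehicle for the same replicate, using vsn-normalised intensities.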

Row | Target | NP40-soluble protein abundance (concentration: 0.1mM) | NP40-soluble protein abundance (concentration: 0.5mM)
1 | THG1L (UniProt Q9NWX6) | 1.01 ± 0.01 | 1.034 ± 0.008
2 | RERE (UniProt Q9P2R6) | 1.025 ± 0.0044 | 1.038 ± 0.01
3 | UniProt Q9NQW7-3 | 1.03 ± 0.04 | 1 ± 0.028
4 | UniProt Q9NZN8 and related entries | 0.915 ± 0.03 | 0.943 ± 0.078
5 | UniProt Q9NXE8 | 0.972 ± 0.0037 | 0.993 ± 0.018
6 | UniProt Q9NZM5 | 0.985 ± 0.068 | 1.013 ± 0.0023
7 | UniProt Q9P109 | 0.996 ± 0.027 | 0.997 ± 0.045
8 | GDE1 (UniProt Q9NZC3) | 0.995 ± 0.036 | 1.02 ± 0.048
9 | ADPRHL2 (UniProt Q9NX46) | 0.9594 ± 0.0092 | 0.954 ± 0.027
10 | COMMD8 (UniProt Q9NX08) | 1.01 ± 0.016 | 1 ± 0.043
11 | GEMIN8 (UniProt Q9NWZ8) | 1 ± 0.029 | 0.987 ± 0.031
12 | UniProt Q9NXF7 | 0.98 ± 0.027 | 0.974 ± 0.05
13 | HINT3 (UniProt Q9NQE9) | 0.983 ± 0.019 | 0.989 ± 0.017
14 | UniProt Q9NX07 and related entries | 0.9819 ± 0.006 | 0.988 ± 0.028
15 | RBM12 (UniProt Q9NTZ6) | 0.97 ± 0.012 | 0.959 ± 0.02
16 | UniProt Q9NW15 and related entries | 1.01 ± 0.022 | 1 ± 0.014
17 | HECA (UniProt Q9UBI9) | 0.9675 ± 0.0064 | 0.989 ± 0.032
18 | CISD1 (UniProt Q9NZ45) | 0.9898 ± 0.0051 | 1.04 ± 0.025
19 | METTL1 (UniProt Q9UBP6) | 0.987 ± 0.023 | 0.9746 ± 0.0094
20 | UniProt Q9NRG9 and related entries | 0.963 ± 0.035 | 0.974 ± 0.034
21 | SIPA1L2 (UniProt Q9P2F8) | 1.043 ± 0.003 | 1.01 ± 0.025
22 | TXNL4B (UniProt Q9NX01) | 0.979 ± 0.027 | 1.02 ± 0.057
23 | UniProt Q9NZB2 and related entries | 1.05 ± 0.036 | 1.01 ± 0.018
24 | CHD7 (UniProt Q9P2D1) | 0.978 ± 0.014 | 0.956 ± 0.013
25 | CDKN2AIP (UniProt Q9NXV6) | 0.974 ± 0.02 | 1.01 ± 0.02

Row | Target | NP40-soluble protein abundance (concentration: 0.1mM) | NP40-soluble protein abundance (concentration: 0.5mM)
26 | RPRD1B (UniProt Q9NQG5) | 0.966 ± 0.041 | 0.979 ± 0.044
27 | UniProt Q9NVH2 and related entries | 0.992 ± 0.014 | 1.01 ± 0.025
28 | BIRC6 (UniProt Q9NR09) | 0.997 ± 0.016 | 0.971 ± 0.036
29 | UniProt Q9NVR5 | 0.995 ± 0.022 | 0.973 ± 0.04
30 | MDN1 (UniProt Q9NU22) | 1.02 ± 0.012 | 0.966 ± 0.018
31 | UniProt Q9P0B6 | 1.02 ± 0.014 | 1.04 ± 0.013
32 | UniProt Q9NZT2 and related entries | 0.984 ± 0.016 | 0.993 ± 0.037
33 | UniProt Q9NYP7 and related entries | 1.03 ± 0.11 | 1.01 ± 0.14
34 | UniProt Q9UBH6 and related entries | 1.042 ± 0.0034 | 1.036 ± 0.0018
35 | UniProt Q9NSY1 | 1.03 ± 0.017 | 1.01 ± 0.021
36 | KCMF1 (UniProt Q9P0J7) | 0.978 ± 0.041 | 1 ± 0.06
37 | EXOSC5 (UniProt Q9NQT4) | 0.976 ± 0.021 | 1.01 ± 0.031
38 | UniProt Q9NPQ8 and related entries | 1.0724 ± 0.0002 | 1.04 ± 0.036
39 | UniProt Q9NXR7 | 1.02 ± 0.019 | 1.01 ± 0.049
40 | ZNF219 (UniProt Q9P2Y4) | 0.99 ± 0.032 | 1.01 ± 0.038
41 | LYAR (UniProt Q9NX58) | 1.01 ± 0.081 | 1.01 ± 0.064
42 | UniProt Q9NUP1 | 1.02 ± 0.015 | 1.02 ± 0.026
43 | MRPL16 (UniProt Q9NX20) | 1 ± 0.04 | 0.998 ± 0.056
44 | UniProt Q9P1Z2 and related entries | 1.02 ± 0.029 | 0.982 ± 0.044
45 | UniProt Q9P035 and related entries | 0.9512 ± 0.0088 | 0.967 ± 0.035
46 | TMEM9B (UniProt Q9NQ34) | 1 ± 0.03 | 0.992 ± 0.046
47 | CUTC (UniProt Q9NTM9) | 1.03 ± 0.013 | 1.01 ± 0.049
48 | MRPL39 (UniProt Q9NYK5) | 1.04 ± 0.079 | 1.01 ± 0.066
49 | UniProt Q9NZJ9 and related entries | 1.05 ± 0.034 | 1.05 ± 0.061

Quoted from the listing.
For NP40-soluble protein abundance (concentration: 0.5mM), LYAR (UniProt Q9NX58) has 1.01 ± 0.064
For NP40-soluble protein abundance (concentration: 0.5mM), UniProt Q9P0B6 has 1.04 ± 0.013
